# Reference: PMC5669913
# Chains of the proteins cited; added tags and fusions are not shown. Residues count along the entry.
# UniProt O00220, residues 24-468: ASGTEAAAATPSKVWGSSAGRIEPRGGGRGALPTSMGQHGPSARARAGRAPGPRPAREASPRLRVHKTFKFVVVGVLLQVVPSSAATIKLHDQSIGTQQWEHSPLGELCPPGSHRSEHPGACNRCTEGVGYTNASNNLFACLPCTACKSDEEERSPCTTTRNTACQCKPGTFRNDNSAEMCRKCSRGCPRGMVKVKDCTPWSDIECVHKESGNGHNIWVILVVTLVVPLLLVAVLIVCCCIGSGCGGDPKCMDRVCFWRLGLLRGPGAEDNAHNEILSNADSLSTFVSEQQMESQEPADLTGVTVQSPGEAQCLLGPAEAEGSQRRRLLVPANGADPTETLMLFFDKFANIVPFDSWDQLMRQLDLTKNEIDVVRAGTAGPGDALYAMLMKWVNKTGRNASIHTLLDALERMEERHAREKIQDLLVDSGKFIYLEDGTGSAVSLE
# No constants are given. Whether binding was seen depends on the method and setting. In cells and extracts the contact can be indirect. Some entries that bind do so weakly or less than the wild type.
# Molecular target: T1, MARCH-8, a member of the membrane-associated RING-CH (MARCH) ubiquitin ligase family (human (endogenous in HCT116 and RKO)) (UniProt Q5T0T0)
# T1 sequence: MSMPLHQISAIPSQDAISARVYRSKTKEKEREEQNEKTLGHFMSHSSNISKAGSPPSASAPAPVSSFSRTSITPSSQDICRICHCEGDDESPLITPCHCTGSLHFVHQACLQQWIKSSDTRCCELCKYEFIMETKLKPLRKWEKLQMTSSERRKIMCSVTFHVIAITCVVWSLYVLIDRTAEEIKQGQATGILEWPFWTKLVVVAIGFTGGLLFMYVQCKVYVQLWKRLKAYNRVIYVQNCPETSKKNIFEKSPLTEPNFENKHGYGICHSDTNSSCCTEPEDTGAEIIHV
# Experiment: co-IP; cell lysates (20 mM Tris-HCl pH 7.6, 150 mM NaCl, 1 mM EDTA, 0.5% NP-40, 10% glycerol) incubated 12 h at 4°C with primary antibodies or IgG, then protein A/G agarose 4 h, washed 3 times with RIPA buffer, western blot; HCT116 and RKO cells, with NDRG1 over-expression or knock-down and their controls
substance,measurement,value
death receptor 4 (from UniProt O00220 24-468),binding,binds
